Assay results from PMC5764391.
Results are given in words; binding and its absence hold for the method and conditions named. In cells and extracts the contact can be indirect. Some binding calls cover weakened binding; strength is not graded here. Sequences can lack the tags named with a protein.

Sequences of proteins named here, by UniProt entry; tags and fusion partners are left off.
UniProt Q96SD1: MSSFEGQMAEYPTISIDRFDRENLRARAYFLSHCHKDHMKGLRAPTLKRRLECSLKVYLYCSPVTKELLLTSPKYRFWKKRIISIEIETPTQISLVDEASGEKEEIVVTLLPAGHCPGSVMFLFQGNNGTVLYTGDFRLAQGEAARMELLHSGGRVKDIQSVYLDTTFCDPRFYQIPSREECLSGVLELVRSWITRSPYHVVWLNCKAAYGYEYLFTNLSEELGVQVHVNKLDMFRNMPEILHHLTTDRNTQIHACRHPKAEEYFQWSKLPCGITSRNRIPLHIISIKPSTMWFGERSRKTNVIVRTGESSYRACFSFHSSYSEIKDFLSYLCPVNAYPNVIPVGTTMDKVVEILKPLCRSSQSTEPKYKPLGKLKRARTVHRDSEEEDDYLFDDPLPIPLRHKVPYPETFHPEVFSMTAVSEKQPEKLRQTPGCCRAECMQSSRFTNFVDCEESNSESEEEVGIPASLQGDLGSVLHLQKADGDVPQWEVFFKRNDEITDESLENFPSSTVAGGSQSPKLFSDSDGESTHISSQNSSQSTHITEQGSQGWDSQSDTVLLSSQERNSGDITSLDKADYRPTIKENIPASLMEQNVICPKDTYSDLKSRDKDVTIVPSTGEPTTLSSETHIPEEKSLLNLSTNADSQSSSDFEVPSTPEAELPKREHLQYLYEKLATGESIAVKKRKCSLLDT

Molecular target: T1, POT1-FLAG (UniProt Q9NUX5)
T1 sequence: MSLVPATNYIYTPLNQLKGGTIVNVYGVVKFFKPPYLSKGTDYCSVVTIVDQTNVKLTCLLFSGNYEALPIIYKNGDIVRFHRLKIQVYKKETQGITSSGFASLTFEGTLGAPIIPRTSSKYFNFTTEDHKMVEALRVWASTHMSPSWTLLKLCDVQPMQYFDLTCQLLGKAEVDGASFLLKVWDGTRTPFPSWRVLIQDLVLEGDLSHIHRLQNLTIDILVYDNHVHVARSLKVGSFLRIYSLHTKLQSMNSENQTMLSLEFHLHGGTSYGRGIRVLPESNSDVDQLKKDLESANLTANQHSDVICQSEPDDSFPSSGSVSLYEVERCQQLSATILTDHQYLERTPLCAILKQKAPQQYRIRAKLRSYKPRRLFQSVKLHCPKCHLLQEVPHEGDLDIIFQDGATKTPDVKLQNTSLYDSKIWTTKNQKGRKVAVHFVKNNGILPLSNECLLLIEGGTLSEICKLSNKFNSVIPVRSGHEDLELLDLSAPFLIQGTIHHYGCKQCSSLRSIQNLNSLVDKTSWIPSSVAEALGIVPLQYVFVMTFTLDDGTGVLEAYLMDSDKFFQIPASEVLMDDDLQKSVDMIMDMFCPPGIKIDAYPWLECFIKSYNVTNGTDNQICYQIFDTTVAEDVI
Assay: co-IP; 293FT cells co-transfected with POT1-FLAG and Artemis-GFP, X-Ray 6 Gy on day 1 post transfection, harvested at different time points; lysates sonicated, pre-cleared, immunoprecipitated with an antibody against FLAG overnight at 4°C, protein A/G, Western blot

Artemis-GFP (from UniProt Q96SD1 1-692)
binding: binds
